Data from patent US4963552A, “1-substitute-1,2-dihydro-4-((substituted)phenyl)imidazo-[1,5-a] pyrimidine-8-carbonitriles” (American Cyanamid Company, priority 1989, dated 1990).
Where “and” joins values, the source holds several entries; their conditions need not be identical. Equal entries are not always repeated. At least one read-out could not be matched to a standard name with certainty.

Amino acid sequences for entries named in this document (tags omitted).
UniProt P31645, whole entry: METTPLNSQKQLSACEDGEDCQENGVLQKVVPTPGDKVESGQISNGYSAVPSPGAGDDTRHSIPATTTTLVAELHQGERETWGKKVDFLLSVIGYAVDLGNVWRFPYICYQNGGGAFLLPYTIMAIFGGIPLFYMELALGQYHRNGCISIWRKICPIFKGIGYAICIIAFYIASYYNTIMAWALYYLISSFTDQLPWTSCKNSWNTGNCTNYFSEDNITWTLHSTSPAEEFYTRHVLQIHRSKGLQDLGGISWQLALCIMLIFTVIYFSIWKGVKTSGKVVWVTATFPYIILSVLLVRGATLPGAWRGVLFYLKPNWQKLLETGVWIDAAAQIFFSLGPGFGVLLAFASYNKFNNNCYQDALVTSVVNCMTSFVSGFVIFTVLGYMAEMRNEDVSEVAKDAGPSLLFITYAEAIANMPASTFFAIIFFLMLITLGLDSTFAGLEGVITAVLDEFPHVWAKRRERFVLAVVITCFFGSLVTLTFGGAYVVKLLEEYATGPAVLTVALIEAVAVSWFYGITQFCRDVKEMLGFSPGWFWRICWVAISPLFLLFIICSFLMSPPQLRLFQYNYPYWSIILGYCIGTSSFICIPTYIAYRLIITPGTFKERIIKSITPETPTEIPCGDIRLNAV

Molecular target: T1, [^3 H]-imipramine receptor (human platelet membranes) (Homo sapiens, UniProt P31645)
T1 construct: Platelet membranes were obtained using the procedure described by Wennogle, L. P., et al; tissue New York Blood Center; host or cells: human platelets (washed, sonicated membranes)
Experiment: Inhibition of [^3 H]-imipramine binding to human platelet membranes
Settings: 10 μm test compound, 90 minutes at 0° C., duplicate; more than 50% considered active
Description: The activity of the compounds of this invention as antidepressant agents was verified in the following test which measures the ability of a test compound to inhibit [^3 H]-imipramine binding to human platelet membranes.
Platelet membranes were obtained using the procedure described by Wennogle, L. P., et al., Pharmac. Biochem Behav., 15, 975 (1981). Fresh human platelet concentrates(less than 48 hours old) were obtained from the New York Blood Center. These concentrates were prepared in a citrate-dextrose anticoagulant using standard techniques. […]
The displacement of [^3 H]-imipramine binding to human platelet membranes was performed essentially as described by Paul, S. M., et al , Life Sci., 26, 953 (1980) with the following modifications. […] Filters were counted in a liquid scintillation counter after addition of Beckman Hp Scintillant.
Non-specific binding of [^3 H]-imipramine was defined as that fraction (generally 35%) of radioactivity that was not displaced by 10 μm desmethylimipramine. Specific binding was determined by subtraction of this non-specific level from values for total [^3 H]-imipramine binding which were measured by incubating [^3 H]-imipramine in the absence of displacing drug. […]

With N#Cc1ncn2c1N(C(=O)CN1CCN(Cc3ccc(Cl)cc3)CC1)CC=C2c1cccc(C(F)(F)F)c1 [Example 11, 1-[[4-[(4-Chlorophenyl)methyl]-1-piperazinyl]acetyl]-1,2-dihydro-4-[3-(trifluoromethyl)phenyl]imidazo[1,5-a]pyrimidine-8-carbonitrile] the “% Inhibition of [^3 H]-imipramine binding” value was 92% and 80%.
